From patent US7465848B2, “Zebrafish assay” (priority 2002, dated 2008)
Some results were stated once for a whole list of compounds, not compound by compound.

System: zebrafish
Experiment: Calcium transient (CAT90) imaging in zebrafish embryo heart with dextran-coupled calcium-green
Type: in vivo, Danio rerio
Details: single reference point in the ventricle

Row | SMILES | CAT90 normalized by the square root of the preceding RR interval, increase relative to negative control
1 | CN(CCOc1ccc(NS(C)(=O)=O)cc1)CCc1ccc(NS(C)(=O)=O)cc1 [dofetilide] | at least 20%
2 | CC(C)(C)c1ccc(C(O)CCCN2CCC(C(O)(c3ccccc3)c3ccccc3)CC2)cc1 (centres unmarked) [terfenadine] | at least 20%
